# Test results taken from PubChem BioAssay AID1671190 (National Center for Advancing Translational Sciences (NCATS), 2021).
# Sequences of proteins named here, by UniProt entry; tags and fusion partners are left off. A change or cut given only in a name is not applied to a line headed by its entry.
# UniProt P18054: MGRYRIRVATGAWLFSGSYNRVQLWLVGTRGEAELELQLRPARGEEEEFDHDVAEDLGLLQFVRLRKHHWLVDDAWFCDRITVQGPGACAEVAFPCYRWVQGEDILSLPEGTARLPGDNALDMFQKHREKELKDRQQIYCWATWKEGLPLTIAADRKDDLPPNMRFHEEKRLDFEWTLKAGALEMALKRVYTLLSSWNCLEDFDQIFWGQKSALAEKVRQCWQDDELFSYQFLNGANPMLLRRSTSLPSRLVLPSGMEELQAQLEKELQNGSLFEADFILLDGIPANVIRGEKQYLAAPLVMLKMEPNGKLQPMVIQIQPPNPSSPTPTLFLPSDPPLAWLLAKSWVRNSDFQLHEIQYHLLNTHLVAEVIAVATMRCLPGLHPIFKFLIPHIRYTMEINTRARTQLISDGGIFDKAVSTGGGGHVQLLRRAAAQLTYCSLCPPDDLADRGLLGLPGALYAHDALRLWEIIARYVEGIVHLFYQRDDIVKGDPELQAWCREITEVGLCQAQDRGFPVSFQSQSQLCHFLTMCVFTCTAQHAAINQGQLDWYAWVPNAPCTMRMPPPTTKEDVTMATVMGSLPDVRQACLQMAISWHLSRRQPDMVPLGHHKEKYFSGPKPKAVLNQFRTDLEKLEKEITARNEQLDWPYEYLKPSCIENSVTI
# Out of some 580,000 compounds screened, about 6,100 (1.1%) were called active. Inconclusive results, whose numbers are uncertain, are shown with a selection of clear calls. Calls come from the whole dose curve; as a rule, active = well fitted inhibition curve with a large enough effect; inconclusive = small, poorly fitted or top-dose-only effect, or another doubt; inactive = no such curve, though single readings can be large or run the other way. A potency beside an inconclusive call is a rough fit, not a confirmed value.
# Target: Polyunsaturated fatty acid lipoxygenase ALOX12 (Homo sapiens) (UniProt P18054)
# Assay: Primary qHTS assay for inhibitors of human arachidonate 12S-lipoxygenase (ALOX12): Round 2
# Conditions: purified 12hLO, xylenol orange hydroperoxide absorbance; activity change, negative = inhibition: at 108 µM (top of the series) unless noted
# Procedure, shortened: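 Purified human 12hLO at 150 nM in 25 mM Hepes, 0.01% Triton X-100, pH 7.0, preincubated 15 min at room temperature with compound. Reaction started with 40 uM arachidonic acid, 30 min at room temperature. Hydroperoxide measured by Fe-xylenol orange, 573/405 nm absorbance ratio.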
# % is set by controls: 0 for no effect and ±100 for the full control effect; potency is the fitted concentration of half-maximal effect.
Compound,"activity change, negative = inhibition",Potency
O=C1N(c2ccccc2)c2ccccc2C12CCN([S+](=O)([O-])c1cccs1)C2 (configuration not stated),inactive: 3.94% [at 6.33 µM],–
CC(C)Nc1nc(-c2ccc(Br)cc2)cs1,–,"inconclusive: 35.5 µM [inhibitor, partial curve, poor fit]"
O=Cc1ccc(O)c(Cl)c1,–,inactive
Cc1cc2oc(=O)cc(CN3CCN(CCO)CC3)c2cc1O,–,inactive
Cc1cc(Br)cn2c(Cc3cccc(F)c3)c(-c3cccc(Br)c3)nc12,–,"inconclusive: 50.1 µM [inhibitor, partial curve, poor fit]"
COCCNC(=O)[C@@H]1C[C@H](Oc2cccnc2)CN1C(=O)c1cccs1,–,inactive
c1ccc(-c2ccc(-c3csc(-c4ccccn4)n3)cc2)cc1,–,"inconclusive: 3.55 µM [inhibitor, full curve]"
COc1ccccc1C(=O)Nc1c(C(=O)N(C)Cc2ccccc2)sc2nc(C)c(Cl)c(C)c12,–,"inconclusive: 112 µM [inhibitor, partial curve, poor fit]"
COc1ccc(CCNC(=O)c2nn(C)c3c2CS(=O)(=O)c2ccccc2-3)cc1OC,–,"inconclusive: 2.51 µM [inhibitor, full curve, poor fit]"
CCN(CC)CCNC(=O)c1cc(-c2cccnc2)nc2ccc(S(=O)(=O)N3CCC(C)CC3)cc12,–,"inconclusive: 22.4 µM [inhibitor, partial curve, poor fit]"
CC(=O)Nc1ccc(C(=O)N2CCN(C3CCNCC3)C(=O)C2)cc1,inactive: -9.24% [at 6.33 µM],–
COc1ccc(CCN2CC(C(=O)NCC(c3ccccc3)N(C)C)CC2=O)cc1OC (configuration not stated),–,inactive
CN1CCN(C2Cc3cc(Cl)ccc3Sc3cc(F)ccc32)CC1 (configuration not stated),–,"inconclusive: 112 µM [inhibitor, single point]"
N#Cc1cccc(C(=O)NC2CCCN(c3cc(-c4ccc(Cl)cc4)[nH]n3)C2)c1 (configuration not stated),–,"inconclusive: 39.8 µM [inhibitor, full curve]"
COc1ccccc1CCn1cnc(-c2ccc(F)cc2)c1C(C)C,–,"inconclusive: 70.8 µM [inhibitor, partial curve, poor fit]"
COc1ccc(-c2nc3c(C)cc(Br)cn3c2Cc2ccccc2)cc1OC,–,"inconclusive: 25.1 µM [inhibitor, partial curve, poor fit]"
CCOC(=O)c1sc(Nc2ccc(C)cc2)nc1C,–,"inconclusive: 44.7 µM [inhibitor, partial curve, poor fit]"
COc1ccc(CNCCCC(=O)Nc2c(Cl)ccc(C)c2Cl)cc1OC,–,"inconclusive: 3.55 µM [inhibitor, full curve, poor fit]"
COc1ccc(-c2nnc(SCc3csc(Nc4ccc(C)cc4)n3)o2)cc1,–,inactive
Cc1ccc(Cc2c(-c3ccccc3)nc3cc(C)c(Br)c(C)n23)cc1,–,"inconclusive: 79.4 µM [inhibitor, partial curve, poor fit]"
COc1ccc(C2/C=C\CN(S(=O)(=O)c3ccc(C)cc3)CC(=O)N2Cc2cccc(F)c2)cc1 (configuration not stated),inconclusive: -31.7% [inhibitor],–
CC(=O)c1ccc(Nc2cc(C)nc3c(C)cc(C)cc23)cc1,–,inactive
COc1ccc(OC)c(NC(=O)CSc2ccc(-c3ccco3)nn2)c1,–,"inconclusive: 50.1 µM [inhibitor, partial curve, poor fit]"

# 2 entries from above, reformatted.
Compound	activity change, negative = inhibition	Potency
CC(C)Nc1nc(-c2ccc(Br)cc2)cs1	–	inconclusive: 35.5 µM [inhibitor, partial curve, poor fit]
COc1ccccc1CCn1cnc(-c2ccc(F)cc2)c1C(C)C	–	inconclusive: 70.8 µM [inhibitor, partial curve, poor fit]

# Remaining list, next part:

Compound,"activity change, negative = inhibition",Potency
C[C@@H]1C(=O)O[C@H]2[C@H]1CC[C@@]1(C)Cc3sc(Nc4ccc(O)cc4)nc3[C@@H](C)[C@H]21,–,"inconclusive: 14.1 µM [inhibitor, partial curve, poor fit]"
COc1ccc(C(=O)O)cc1NC(=S)NC(=O)C(c1ccccc1)c1ccccc1,–,active: 35.5 µM
Cc1cc(C(=O)N2CCC3(COc4ncccc4S(=O)(=O)N3)C2)no1 (configuration not stated),inactive: -0.274% [at 6.33 µM],–
CCc1ccc(S(=O)(=O)NCc2csc(-c3ccccc3)n2)s1,–,inactive
CCCc1cc(=O)n2c(nc3ccccc32)[nH]1,–,inactive
Cc1ccc(/C=C2\SC(=S)N(C3CCS(=O)(=O)C3)C2=O)cc1 (configuration not stated),–,inactive
CCOc1cc(/C=C2/N=C(c3ccc(C(C)(C)C)cc3)OC2=O)cc(Cl)c1OS(C)(=O)=O,–,"inconclusive: 39.8 µM [inhibitor, partial curve]"
CC(/C=C1\N=C(SCc2ccccc2)SC1=O)=C\c1ccccc1,–,"inconclusive: 50.1 µM [inhibitor, partial curve, poor fit]"
COc1ccc(O)c(/C=N/NC(=O)c2ccc(CSc3nc(C)cc(C)n3)cc2)c1,–,inactive
O=C(NC(=S)Nc1ccc(Br)c(Cl)c1)C1CC1,–,"inconclusive: 50.1 µM [inhibitor, partial curve, poor fit]"
CN(C(=O)c1sc2nc(N3CCOCC3)c3c(c2c1N)CCCC3)c1ccccc1,–,"inconclusive: 20 µM [inhibitor, partial curve]"
COc1ccc(OCC(=O)NC(=S)N2CCCc3ccccc32)cc1,–,"inconclusive: 2.82 µM [inhibitor, full curve]"
Cc1cccc(-n2c(-c3csc(C)c3C)n[nH]c2=S)c1,–,"inconclusive: 50.1 µM [inhibitor, partial curve, poor fit]"
O=C1NCc2ccccc2CC12CCN(Cc1ccc3ccccc3c1)C2 (configuration not stated),–,"inconclusive: 44.7 µM [inhibitor, partial curve, poor fit]"
O=C(CSc1ccc2c(c1)OCCO2)NC(=O)NC1CCCC1,–,inactive
Cc1c(C)n(C(=O)CSc2nc3ccccc3[nH]2)c2ccccc12,–,"inconclusive: 2 µM [inhibitor, full curve, poor fit]"
COc1ccc(-c2cn(Cc3ccc4ccccc4c3)nn2)cc1,–,inactive
CN(C)S(=O)(=O)N1CCN(CC(=O)Nc2cc(Cl)ccc2Cl)CC1,–,inactive
CCOC(=O)c1c(CSCc2ccccc2)oc2ccc(O)c(CN(C)C)c12,–,"inconclusive: 112 µM [inhibitor, single point]"
CCN1CCN(c2oc(COc3ccccc3F)nc2C#N)CC1,–,"inconclusive: 89.1 µM [inhibitor, single point]"
CCC(C(=O)O)n1c2ccccc2c2cn[nH]c(=O)c21 (configuration not stated),–,inactive
CC(=O)Nc1cccc(C(C)NC(=O)Nc2cc(Cl)cc(Cl)c2)c1 (configuration not stated),–,"inconclusive: 89.1 µM [inhibitor, single point]"
CCC1NC(=O)c2cccnc2-n2c1nc1ccc(OC)cc1c2=O (configuration not stated),–,"inconclusive: 31.6 µM [inhibitor, single point]"

Compound,"activity change, negative = inhibition",Potency
CCC1=[N+](CC(=O)c2ccc(Br)cc2)CCn2c(C)ccc21,–,"inconclusive: 35.5 µM [inhibitor, partial curve, poor fit]"
COc1ccc(CCNC(=O)CSc2nc3[nH]ncc3c(=O)[nH]2)cc1OC,–,"inconclusive: 28.2 µM [inhibitor, partial curve, poor fit]"
O=P(O)(CP(=O)(c1ccccc1)c1ccccc1)c1ccccc1,–,"inconclusive: 89.1 µM [inhibitor, partial curve, poor fit]"
COc1ccc(Cc2nc3ccc(C(=O)NCCc4ncccc4C)cc3o2)cc1OC,–,"inconclusive: 89.1 µM [inhibitor, single point]"
COc1ccc(OC)c(Nc2nc(-c3c(C)nc4ncccn34)cs2)c1,–,"inconclusive: 35.5 µM [inhibitor, single point]"
CCCCC(=O)N(C)c1c(CC)nc2c(OCC(=O)c3ccc(Cl)cc3Cl)cccn12,–,"inconclusive: 28.2 µM [inhibitor, partial curve, poor fit]"
COc1ccc(C(=O)Nc2ccc(C)cc2C(=O)c2ccccc2)cc1,–,inactive
N#Cc1ccc(C(=O)Nc2ccc(Cl)c(-c3nc4ncccc4o3)c2)c(F)c1,–,inactive
Cc1ccc(NC(=O)Cn2c(=O)n(-c3ccccc3)c(=O)c3ccc(C(=O)NCc4ccc5c(c4)OCO5)cc32)c(C)c1,–,inactive
C=C1CC[C@@H]2[C@](C)(CCC[C@@]2(C)/C=C/[C@@H](O)C(C)(C)O)[C@H]1CC(=O)NCCS(=O)(=O)O,–,"inconclusive: 31.6 µM [inhibitor, partial curve, poor fit]"
COc1ccccc1NC(=O)c1cc2ccccc2cc1OCC(N)=O,–,active: 35.5 µM
COc1cccc(CNC(=O)C2CCN(S(=O)(=O)c3ccc4c(c3)C(C)(C)C(=O)N4C)CC2)c1,–,inactive
CN(C)c1ccc(C=C2C(=O)OC3(CCCC3)OC2=O)cc1,–,active: 44.7 µM
O=C(Nc1ncnc2sc3c(c12)CCCCC3)c1ccco1,–,inactive
COC(=O)N(C)C1CCc2ccccc21 (configuration not stated),–,inactive
COc1cc(/C=N/NC(=O)CCN2CCN(C(c3ccccc3)c3ccccc3)CC2)ccc1O,–,"inconclusive: 56.2 µM [inhibitor, partial curve, poor fit]"
CN1CCc2c(sc(NC(=O)c3ccc(C(=O)c4ccccc4)cc3)c2C(N)=O)C1,–,"inconclusive: 35.5 µM [inhibitor, partial curve, poor fit]"
Cc1ccc(NC(=O)c2sc3nc4c(c(-c5ccco5)c3c2N)CCC4)cc1,–,"inconclusive: 31.6 µM [inhibitor, partial curve, poor fit]"
COc1ccc(CN2CCc3ccccc3C2)c(OC)c1,–,"inconclusive: 4.47 µM [inhibitor, full curve, poor fit]"
CC(=O)c1cc(F)c(N2CCCCCC2)cc1C,–,"inconclusive: 35.5 µM [inhibitor, single point]"
Cc1cc(-c2ccc(Cl)cc2)c2cnn(C(C)C)c2n1,–,"inconclusive: 39.8 µM [inhibitor, partial curve, poor fit]"

# 2 of the compounds above, bar-delimited:
Compound | activity change, negative = inhibition | Potency
CN(C)c1ccc(C=C2C(=O)OC3(CCCC3)OC2=O)cc1 | – | active: 44.7 µM
O=C(Nc1ncnc2sc3c(c12)CCCCC3)c1ccco1 | – | inactive
